# Source: patent publication US20110186299A1, “Low-Toxicity Biodegradable Corrosion Inhibitors” (priority 2008, published 2011)
# What was measured:
# [1] = Rate of hydrogen sulphide corrosion by polarization resistance measurement; conditions: H2S-saturated two-phase medium (20% white spirit, 80% 1 g/l NaCl), 80° C., 25 ppm (volume/volume) of test compound at 50% by weight in monoethylene glycol
# [2] = Rate of carbon dioxide corrosion by polarization resistance measurement; conditions: CO2-saturated two-phase medium (20% white spirit, 80% 1 g/l NaCl), 80° C., 25 ppm (volume/volume) of test compound at 50% by weight in monoethylene glycol
Molecule,Rcor (rate of corrosion) [1],Rcor (rate of corrosion) [2]
"CCCCCCCCC=CCCCCCCCC1=NCCN1CCN [Imidazoline A, N-aminoethyl-2-heptadecenylimidazoline]",0.04 mm/year,0.04 mm/year
N-aminoethyl-2-heptadecenylimidazoline maleate [Example 2],0.02 mm/year,0.05 mm/year
